Measurements from article PMC8216332.
These are yes or no findings as the source states them, for the method shown. In cells and extracts the contact can be indirect. Here binding means that the protein was enriched with, or labelled near, the bait; the list need not be complete. Tags and fused reporters may be left off the sequences shown.

Biological target: T1, small regulatory polypeptide of amino acid response (SPAAR), HA tagged (human)
T1 sequence: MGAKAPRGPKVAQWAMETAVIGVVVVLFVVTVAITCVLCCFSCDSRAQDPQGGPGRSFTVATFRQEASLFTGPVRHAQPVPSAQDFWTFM
Test: affinity purification with mass spectrometry; anti-HA immunoprecipitation from HUVECs expressing LV-SPAAR-HA; controls: anti-IgG, LV-Null and untagged LV-SPAAR cells; two replicates; partners defined by detection in both replicates and two-fold enrichment over controls

binding: binds
Substance: SYNE1 (from UniProt Q8NF91 1-8797)
